Values quoted from earlier work in patent US20230218544A1, “TREATMENT METHODS AND FORMULATIONS” (Curtin University, priority 2020, published 2023).

Conditions: cisplatin: in adults; cited from earlier work

## NS(=O)(=O)c1cc(C(=O)O)c(NCc2ccco2)cc1Cl [furosemide]
  ototoxicity induced hearing loss rate: 6-7%
